The test has as its target T1, SMARCAD1 (endogenous, mouse embryonic stem cells) (mouse (endogenous in mouse ESCs)) (UniProt Q04692).
T1 sequence: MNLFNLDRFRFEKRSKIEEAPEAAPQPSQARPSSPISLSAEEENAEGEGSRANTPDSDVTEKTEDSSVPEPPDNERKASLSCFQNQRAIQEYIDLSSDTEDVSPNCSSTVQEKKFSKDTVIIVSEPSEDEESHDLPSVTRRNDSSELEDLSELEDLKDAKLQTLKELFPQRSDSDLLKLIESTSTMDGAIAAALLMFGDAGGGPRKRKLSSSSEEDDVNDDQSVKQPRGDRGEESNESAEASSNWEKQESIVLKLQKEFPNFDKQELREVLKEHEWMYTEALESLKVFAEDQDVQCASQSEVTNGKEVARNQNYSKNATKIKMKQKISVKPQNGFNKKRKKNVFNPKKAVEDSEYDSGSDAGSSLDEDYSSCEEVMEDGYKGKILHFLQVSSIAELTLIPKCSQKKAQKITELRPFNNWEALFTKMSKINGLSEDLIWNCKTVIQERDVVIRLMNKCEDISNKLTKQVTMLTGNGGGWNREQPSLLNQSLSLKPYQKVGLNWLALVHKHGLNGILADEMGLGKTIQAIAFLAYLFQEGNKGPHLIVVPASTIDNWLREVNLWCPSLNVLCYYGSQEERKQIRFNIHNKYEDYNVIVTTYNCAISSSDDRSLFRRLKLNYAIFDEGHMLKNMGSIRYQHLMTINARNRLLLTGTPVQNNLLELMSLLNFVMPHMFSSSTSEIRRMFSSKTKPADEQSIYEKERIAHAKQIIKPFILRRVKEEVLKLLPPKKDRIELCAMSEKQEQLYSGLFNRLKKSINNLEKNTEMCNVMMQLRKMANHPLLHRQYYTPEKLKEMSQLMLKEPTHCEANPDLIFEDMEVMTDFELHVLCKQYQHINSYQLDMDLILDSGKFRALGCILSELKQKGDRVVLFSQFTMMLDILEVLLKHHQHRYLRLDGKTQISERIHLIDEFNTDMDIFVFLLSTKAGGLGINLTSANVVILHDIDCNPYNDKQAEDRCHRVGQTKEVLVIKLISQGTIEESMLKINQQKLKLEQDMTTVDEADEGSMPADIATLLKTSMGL
Description: co-IP; SMARCAD1-specific antibody on mESC nuclear extract (150 μg), with 150 units/ml Benzonase and 0.1 μg/μl ethidium bromide; Protein G Dynabeads; washes with 100 mM KCl, 0.05% Triton X-100; western blot.

By UniProt entry, the sequences of proteins in these tests, tags left out.
UniProt O09106: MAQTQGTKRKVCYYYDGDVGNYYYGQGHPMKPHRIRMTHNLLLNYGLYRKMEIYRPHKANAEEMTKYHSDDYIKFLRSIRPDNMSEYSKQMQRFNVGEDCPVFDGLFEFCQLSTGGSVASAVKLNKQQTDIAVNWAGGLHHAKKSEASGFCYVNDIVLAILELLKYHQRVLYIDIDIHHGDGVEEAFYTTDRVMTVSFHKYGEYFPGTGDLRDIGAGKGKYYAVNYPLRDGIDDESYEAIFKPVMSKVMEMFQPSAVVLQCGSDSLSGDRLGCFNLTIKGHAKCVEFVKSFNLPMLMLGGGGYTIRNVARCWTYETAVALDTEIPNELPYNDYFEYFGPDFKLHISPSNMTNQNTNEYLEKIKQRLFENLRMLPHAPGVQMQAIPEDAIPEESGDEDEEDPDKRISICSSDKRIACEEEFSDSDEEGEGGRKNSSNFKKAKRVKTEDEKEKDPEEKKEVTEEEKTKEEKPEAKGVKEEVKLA

These are yes or no findings as the source states them, for the method shown. Binding seen in cells or lysates may run through a third protein. Some results given as binding are weak or reduced against the parent protein; the word gives no strength.

On to “HDAC1 (endogenous, mouse embryonic stem cells) (from UniProt O09106 1-482)”, for which the binding entry is on record as “binds”.

The values are drawn from paper PMC6430823.
